{"source": "patent US20230128688A1", "about": "“DIRECTED CONJUGATION TECHNOLOGIES” (KLEO PHARMACEUTICALS, INC., priority 2019, published 2023)", "key": {"daratumumab [1]": {"test_system": "daratumumab", "test": "Peptide mapping / mass spectrometry of conjugation sites", "assay_type": "biochemical", "details": "MS"}, "daratumumab [2]": {"test_system": "daratumumab", "test": "Conjugation of reagent to daratumumab, DAR measured by FITC absorbance", "details": "2.5 M eq of reagent, phosphate buffer saline pH 7.4, 4 h at 25° C."}, "Denosumab (IgG2)": {"test_system": "Denosumab (IgG2)", "test": "Peptide mapping of conjugation sites, IgG2 antibody", "assay_type": "biochemical", "details": "borate buffer pH 8.2, 2.5 M eq, 20 h, 25 C"}, "Nivolumab (IgG4)": {"test_system": "Nivolumab (IgG4)", "test": "Peptide mapping of conjugation sites, IgG4 antibody", "assay_type": "biochemical", "details": "borate buffer pH 8.2, 2.5 M eq, 20 h, 25 C"}}, "note": "“Also recorded” adds a separate entry of the source. Non-standard residues stand in square brackets, D forms with d. Residues, ends and D or L forms follow the SMILES beside them. *: point of attachment. X2 = O=C(CCOCCOCCOCCOCCOCCOCCNC(=S)Nc1ccc2c(c1)C(=O)OC21c2ccc(O)cc2Oc2cc(O)ccc21)Oc1c(F)cc(CN*)cc1F; PEG4 = NCCOCCOCCOCCOCCC(=O)O", "data": [{"smiles": "CC(=O)NCc1ccc(OC(=O)CCOCCOCCOCCOCCOCCOCCNC(=S)Nc2ccc3c(c2)C(=O)OC32c3ccc(O)cc3Oc3cc(O)ccc32)c(F)c1", "note": "[Compound I-10]", "values": [{"measurement": "conjugation site / selectivity", "setting": "daratumumab [1]", "result": "non-specific conjugation"}, {"measurement": "DAR (Drug to antibody ratio; Drug is FITC)", "setting": "daratumumab [2]", "result": 0.07}]}, {"smiles": "CC(=O)N[C@@H](CC(=O)O)C(=O)N[C@H]1CSSC[C@@H](C(=O)N[C@H](C(=O)O)[C@@H](C)O)NC(=O)[C@H](Cc2c[nH]c3ccccc23)NC(=O)[C@H](C(C)C)NC(=O)[C@H](CC(C)C)NC(=O)[C@H](CCC(=O)O)NC(=O)CNC(=O)[C@H](CC(C)C)NC(=O)[C@H](CC(=O)NCc2ccc(OC(=O)CCOCCOCCOCCOCCOCCOCCOCCOCCNC(=S)Nc3ccc4c(c3)C(=O)OC43c4ccc(O)cc4Oc4cc(O)ccc43)c(F)c2)NC(=O)[C@H](Cc2c[nH]c3ccccc23)NC(=O)[C@H](C)NC1=O", "note": "[Compound I-44]", "values": [{"measurement": "conjugation site / selectivity", "setting": "daratumumab [1]", "result": "K246 and/or K248 of the heavy chain; also recorded: selectively provide conjugation at sites 246 or 248 of heavy chains"}, {"measurement": "conjugation site / selectivity", "setting": "Denosumab (IgG2)", "result": "specific conjugation"}, {"measurement": "conjugation site / selectivity", "setting": "Denosumab (IgG2); listed as 1-44", "result": "residue 251 and/or 253 of a heavy chain of IgG2"}, {"measurement": "conjugation site / selectivity", "setting": "Nivolumab (IgG4)", "result": "efficient and specific conjugation"}, {"measurement": "conjugation site / selectivity", "setting": "Nivolumab (IgG4); listed as 1-44", "result": "residue 239 and/or 241 of a heavy chain of IgG2"}, {"measurement": "DAR (Drug to antibody ratio; Drug is FITC)", "setting": "daratumumab [2]", "result": 0.96}]}, {"smiles": "CC(=O)NCC(=O)N[C@@H](CO)C(=O)N[C@@H](Cc1ccc(O)cc1)C(=O)N[C@@H](Cc1c[nH]c2ccccc12)C(=O)N[C@@H](Cc1ccc(O)cc1)C(=O)N[C@@H](CC(=O)O)C(=O)N[C@H](C(=O)N[C@@H](Cc1c[nH]c2ccccc12)C(=O)N[C@@H](Cc1ccccc1)C(=O)NCCOCCOCCOCCOCCC(=O)NCc1cc(F)c(OC(=O)CCOCCOCCOCCOCCOCCOCCNC(=S)Nc2ccc3c(c2)C(=O)OC32c3ccc(O)cc3Oc3cc(O)ccc32)c(F)c1)C(C)C", "note": "[Compound I-45] (Ac-GSYWYDVWF[PEG4]-X2)", "values": [{"measurement": "conjugation site / selectivity", "setting": "daratumumab [1]", "result": "K246/K248 of antibody heavy chains"}]}, {"smiles": "CC(=O)N[C@@H](CC(=O)O)C(=O)N[C@H]1CSSC[C@@H](C(=O)N[C@H](C(=O)O)[C@@H](C)O)NC(=O)[C@H](Cc2c[nH]c3ccccc23)NC(=O)[C@H](C(C)C)NC(=O)[C@H](CC(C)C)NC(=O)[C@H](CCC(=O)O)NC(=O)CNC(=O)[C@H](CC(C)C)NC(=O)[C@H](CC(=O)NCc2cc(F)c(NS(=O)(=O)C3CCCC=C3C(=O)OCCOCCOCCOCCOCCOCCOCCNC(=S)Nc3ccc4c(c3)C(=O)OC43c4ccc(O)cc4Oc4cc(O)ccc43)c(F)c2)NC(=O)[C@H](Cc2c[nH]c3ccccc23)NC(=O)[C@H](C)NC1=O", "note": "(stereo partly drawn) [Compound I-59]", "values": [{"measurement": "DAR (Drug to antibody ratio; Drug is FITC)", "setting": "daratumumab [2]", "result": 0.71}]}, {"smiles": "CC(=O)NCc1cc(F)c(NS(=O)(=O)C2CCCC=C2C(=O)OCCOCCOCCOCCOCCOCCOCCNC(=S)Nc2ccc3c(c2)C(=O)OC32c3ccc(O)cc3Oc3cc(O)ccc32)c(F)c1", "note": "(stereo not drawn) [Compound I-60]", "values": [{"measurement": "DAR (Drug to antibody ratio; Drug is FITC)", "setting": "daratumumab [2]", "result": 0.23}]}, {"smiles": "CC(=O)N[C@@H](CC(=O)O)C(=O)N[C@H]1CSSC[C@@H](C(=O)N[C@H](C(=O)O)[C@@H](C)O)NC(=O)[C@H](Cc2c[nH]c3ccccc23)NC(=O)[C@H](C(C)C)NC(=O)[C@H](CC(C)C)NC(=O)[C@H](CCC(=O)O)NC(=O)CNC(=O)[C@H](CC(C)C)NC(=O)[C@H](CCCCNC(=O)OCc2ccc(OC(=O)CCOCCOCCOCCOCCOCCOCCNC(=S)Nc3ccc4c(c3)C(=O)OC43c4ccc(O)cc4Oc4cc(O)ccc43)cc2)NC(=O)[C@H](Cc2c[nH]c3ccccc23)NC(=O)[C@H](C)NC1=O", "note": "[Compound I-61]", "values": [{"measurement": "DAR (Drug to antibody ratio; Drug is FITC)", "setting": "daratumumab [2]", "result": 0.88}]}, {"smiles": "CNC(=O)OCc1ccc(OC(=O)CCOCCOCCOCCOCCOCCOCCNC(=S)Nc2ccc3c(c2)C(=O)OC32c3ccc(O)cc3Oc3cc(O)ccc32)cc1", "note": "[Compound I-62]", "values": [{"measurement": "DAR (Drug to antibody ratio; Drug is FITC)", "setting": "daratumumab [2]", "result": 0.05}]}, {"smiles": "CC(=O)N[C@@H](CC(=O)O)C(=O)N[C@H]1CSSC[C@@H](C(=O)N[C@H](C(=O)O)[C@@H](C)O)NC(=O)[C@H](Cc2c[nH]c3ccccc23)NC(=O)[C@H](C(C)C)NC(=O)[C@H](CC(C)C)NC(=O)[C@H](CCC(=O)O)NC(=O)CNC(=O)[C@H](CC(C)C)NC(=O)[C@H](CCCCNC(=O)OCc2ccc(NC(=O)CCOCCOCCOCCOCCOCCOCCNC(=S)Nc3ccc4c(c3)C(=O)OC43c4ccc(O)cc4Oc4cc(O)ccc43)cc2)NC(=O)[C@H](Cc2c[nH]c3ccccc23)NC(=O)[C@H](C)NC1=O", "note": "[Compound I-63]", "values": [{"measurement": "DAR (Drug to antibody ratio; Drug is FITC)", "setting": "daratumumab [2]", "result": 0.81}]}, {"smiles": "CNC(=O)OCc1ccc(NC(=O)CCOCCOCCOCCOCCOCCOCCNC(=S)Nc2ccc3c(c2)C(=O)OC32c3ccc(O)cc3Oc3cc(O)ccc32)cc1", "note": "[Compound I-64]", "values": [{"measurement": "DAR (Drug to antibody ratio; Drug is FITC)", "setting": "daratumumab [2]", "result": 0.13}]}]}
